The source of these data is article PMC10931528.

In experiment [1] the target is T1, NlpI-His (E. coli), P0AFB1.
T1 chain: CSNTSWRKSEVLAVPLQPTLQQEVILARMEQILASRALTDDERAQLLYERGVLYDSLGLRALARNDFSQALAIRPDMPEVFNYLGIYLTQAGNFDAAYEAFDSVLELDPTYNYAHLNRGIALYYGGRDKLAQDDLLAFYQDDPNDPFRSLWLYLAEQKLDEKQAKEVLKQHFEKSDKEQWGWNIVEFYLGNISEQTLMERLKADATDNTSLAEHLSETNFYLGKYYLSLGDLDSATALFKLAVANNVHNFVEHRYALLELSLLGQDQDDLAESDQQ
Nature of the experiment: pull-down; in vivo pull-down in E. coli; plasmid-borne NlpI-His (Para::nlpI-His) as bait; MltD-Flag tested, Prc-HA and MepS as positive controls; details in SI. To be noted: remark: other sources report otherwise.

Another experiment deals with NlpI-His (E. coli) (UniProt P0AFB1). The experiment is described as above.

Results are given in words; binding and its absence hold for the method and conditions named. Binding seen in cells or lysates may run through a third protein. Some results given as binding are weak or reduced against the parent protein; the word gives no strength. Sequences can lack the tags named with a protein.

B1: MltD-Flag, P0AEZ7 16-452 (enzyme)
chain: CQSTGNVQQHAQSLSAAGQGEAAKFTSQARWMDDGTSIAPDGDLWAFIGDELKMGIPENDRIREQKQKYLRNKSYLHDVTLRAEPYMYWIAGQVKKRNMPMELVLLPIVESAFDPHATSGANAAGIWQIIPSTGRNYGLKQTRNYDARRDVVASTTAALNMMQRLNKMFDGDWLLTVAAYNSGEGRVMKAIKTNKARGKSTDFWSLPLPQETKQYVPKMLALSDILKNSKRYGVRLPTTDESRALARVHLSSPVEMAKVADMAGISVSKLKTFNAGVKGSTLGASGPQYVMVPKKHADQLRESLASGEIAAVQSTLVADNTPLNSRVYTVRSGDTLSSIASRLGVSTKDLQQWNKLRGSKLKPGQSLTIGAGSSAQRLANNSDSITYRVRKGDSLSSIAKRHGVNIKDVMRWNSDTANLQPGDKLTLFVKNNNMPDS
In the case of B1, the binding result in experiment [1] is listed as “no binding”.

B2: MepS (enzyme, UniProt P0AFV4 27-188)
chain: CSANNTAKNMHPETRAVGSETSSLQASQDEFENLVRNVDVKSRIMDQYADWKGVRYRLGGSTKKGIDCSGFVQRTFREQFGLELPRSTYEQQEMGKSVSRSNLRTGDLVLFRAGSTGRHVGIYIGNNQFVHASTSSGVIISSMNEPYWKKRYNEARRVLSRS
Turning to B2, in the experiment with NlpI-His (E. coli), the binding entry is “binds”.

B3: Prc-HA (enzyme, UniProt P23865 23-682)
chain: VEDITRADQIPVLKEETQHATVSERVTSRFTRSHYRQFDLDQAFSAKIFDRYLNLLDYSHNVLLASDVEQFAKKKTELGDELRSGKLDVFYDLYNLAQKRRFERYQYALSVLEKPMDFTGNDTYNLDRSKAPWPKNEAELNALWDSKVKFDELSLKLTGKTDKEIRETLTRRYKFAIRRLAQTNSEDVFSLAMTAFAREIDPHTNYLSPRNTEQFNTEMSLSLEGIGAVLQMDDDYTVINSMVAGGPAAKSKAISVGDKIVGVGQTGKPMVDVIGWRLDDVVALIKGPKGSKVRLEILPAGKGTKTRTVTLTRERIRLEDRAVKMSVKTVGKEKVGVLDIPGFYVGLTDDVKVQLQKLEKQNVSSVIIDLRSNGGGALTEAVSLSGLFIPAGPIVQVRDNNGKVREDSDTDGQVFYKGPLVVLVDRFSASASEIFAAAMQDYGRALVVGEPTFGKGTVQQYRSLNRIYDQMLRPEWPALGSVQYTIQKFYRVNGGSTQRKGVTPDIIMPTGNEETETGEKFEDNALPWDSIDAATYVKSGDLTAFEPELLKEHNARIAKDPEFQNIMKDIARFNAMKDKRNIVSLNYAVREKENNEDDATRLARLNERFKREGKPELKKLDDLPKDYQEPDPYLDETVNIALDLAKLEKARPAEQPAPVK
In the case of B3, in the experiment with NlpI-His (E. coli), the binding result is “binds”.
